Measured values from the supplement of paper PMC12823440, “Inhibitors supercharge kinase turnover through native proteolytic circuits” (Nature, 2025).
The list shows a part of the results. The calls rarely recur for the same compound in another form.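 In K562 cells expressing nanoluciferase-fused kinases, luminescence was recorded at 4 h intervals between 2 and 18 h, normalized as percent of control with DMSO at 100% and a positive control at 0%. A significant (2 sigma) signal drop marks a time point as decreased. The authors' rule for a hit is not shown and takes in more than the number of time points.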

Amino acid sequences for entries named in this document (tags omitted). A change or cut given only in a name is not applied to a line headed by its entry.
UniProt P07948: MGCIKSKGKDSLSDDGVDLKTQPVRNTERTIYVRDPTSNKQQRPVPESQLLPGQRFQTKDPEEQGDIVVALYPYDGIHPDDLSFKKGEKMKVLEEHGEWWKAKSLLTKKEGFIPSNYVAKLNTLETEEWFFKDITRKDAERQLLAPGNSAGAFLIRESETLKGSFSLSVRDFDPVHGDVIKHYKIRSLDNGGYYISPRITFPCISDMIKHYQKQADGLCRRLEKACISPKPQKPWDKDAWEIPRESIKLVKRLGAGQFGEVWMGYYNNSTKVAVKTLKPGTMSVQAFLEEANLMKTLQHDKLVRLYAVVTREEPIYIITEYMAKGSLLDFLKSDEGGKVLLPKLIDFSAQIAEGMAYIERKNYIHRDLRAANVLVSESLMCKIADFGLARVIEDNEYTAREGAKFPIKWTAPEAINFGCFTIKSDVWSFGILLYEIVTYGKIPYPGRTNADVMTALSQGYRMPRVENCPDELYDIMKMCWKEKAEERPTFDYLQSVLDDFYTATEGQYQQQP
UniProt Q12851: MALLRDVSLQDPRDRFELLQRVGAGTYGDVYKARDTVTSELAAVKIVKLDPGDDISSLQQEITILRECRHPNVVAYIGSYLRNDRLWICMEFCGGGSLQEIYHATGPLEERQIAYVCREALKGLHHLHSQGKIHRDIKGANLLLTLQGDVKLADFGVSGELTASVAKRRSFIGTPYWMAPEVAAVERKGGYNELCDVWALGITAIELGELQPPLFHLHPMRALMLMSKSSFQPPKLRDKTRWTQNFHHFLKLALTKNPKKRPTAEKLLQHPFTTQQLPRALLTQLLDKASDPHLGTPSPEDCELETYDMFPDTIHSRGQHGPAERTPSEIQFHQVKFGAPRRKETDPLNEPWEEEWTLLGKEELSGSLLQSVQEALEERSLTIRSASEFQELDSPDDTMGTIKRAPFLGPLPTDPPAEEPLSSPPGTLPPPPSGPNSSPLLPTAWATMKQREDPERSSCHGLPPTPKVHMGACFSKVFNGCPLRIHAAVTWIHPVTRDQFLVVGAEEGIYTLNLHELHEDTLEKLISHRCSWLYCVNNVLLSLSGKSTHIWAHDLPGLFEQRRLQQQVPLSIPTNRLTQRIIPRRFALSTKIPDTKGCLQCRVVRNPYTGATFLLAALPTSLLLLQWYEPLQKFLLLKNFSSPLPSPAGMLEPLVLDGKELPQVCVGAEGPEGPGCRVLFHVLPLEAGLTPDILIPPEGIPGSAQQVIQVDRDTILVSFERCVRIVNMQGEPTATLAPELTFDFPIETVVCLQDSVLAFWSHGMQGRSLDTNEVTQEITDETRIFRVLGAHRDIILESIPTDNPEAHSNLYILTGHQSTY
UniProt P28482, whole entry: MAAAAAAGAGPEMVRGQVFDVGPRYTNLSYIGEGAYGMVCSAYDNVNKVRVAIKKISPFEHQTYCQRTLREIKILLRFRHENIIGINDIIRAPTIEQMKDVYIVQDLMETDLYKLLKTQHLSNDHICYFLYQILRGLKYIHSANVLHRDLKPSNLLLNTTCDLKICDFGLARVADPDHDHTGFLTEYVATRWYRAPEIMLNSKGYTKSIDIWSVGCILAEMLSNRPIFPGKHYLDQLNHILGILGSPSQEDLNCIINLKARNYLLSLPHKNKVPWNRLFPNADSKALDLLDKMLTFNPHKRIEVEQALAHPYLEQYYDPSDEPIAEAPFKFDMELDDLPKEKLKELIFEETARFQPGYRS
UniProt P31152, whole entry: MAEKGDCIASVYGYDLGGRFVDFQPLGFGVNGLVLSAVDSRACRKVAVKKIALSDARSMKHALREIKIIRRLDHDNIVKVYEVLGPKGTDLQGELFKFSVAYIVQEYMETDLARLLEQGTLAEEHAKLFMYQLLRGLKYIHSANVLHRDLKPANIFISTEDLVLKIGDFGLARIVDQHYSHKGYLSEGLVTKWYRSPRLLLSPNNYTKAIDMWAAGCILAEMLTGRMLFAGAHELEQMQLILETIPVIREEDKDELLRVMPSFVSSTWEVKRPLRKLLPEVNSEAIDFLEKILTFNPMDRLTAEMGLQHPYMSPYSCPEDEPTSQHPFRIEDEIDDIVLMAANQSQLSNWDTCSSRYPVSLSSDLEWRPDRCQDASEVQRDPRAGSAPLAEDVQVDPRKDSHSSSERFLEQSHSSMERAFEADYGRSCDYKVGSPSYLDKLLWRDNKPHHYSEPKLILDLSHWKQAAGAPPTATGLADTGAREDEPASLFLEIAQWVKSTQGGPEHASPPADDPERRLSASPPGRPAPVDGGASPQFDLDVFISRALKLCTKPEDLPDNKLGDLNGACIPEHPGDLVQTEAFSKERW
UniProt P49137, whole entry, looked up: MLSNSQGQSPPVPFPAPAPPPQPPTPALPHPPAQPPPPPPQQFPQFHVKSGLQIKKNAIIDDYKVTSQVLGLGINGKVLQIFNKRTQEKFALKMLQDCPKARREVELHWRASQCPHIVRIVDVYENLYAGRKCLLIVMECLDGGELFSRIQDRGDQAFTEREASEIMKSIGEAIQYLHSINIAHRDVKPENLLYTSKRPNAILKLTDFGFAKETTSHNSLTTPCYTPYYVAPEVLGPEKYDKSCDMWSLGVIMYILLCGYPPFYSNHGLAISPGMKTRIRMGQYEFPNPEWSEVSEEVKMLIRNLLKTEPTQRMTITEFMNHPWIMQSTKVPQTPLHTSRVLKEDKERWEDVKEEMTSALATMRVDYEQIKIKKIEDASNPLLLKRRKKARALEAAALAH
UniProt Q9BUB5: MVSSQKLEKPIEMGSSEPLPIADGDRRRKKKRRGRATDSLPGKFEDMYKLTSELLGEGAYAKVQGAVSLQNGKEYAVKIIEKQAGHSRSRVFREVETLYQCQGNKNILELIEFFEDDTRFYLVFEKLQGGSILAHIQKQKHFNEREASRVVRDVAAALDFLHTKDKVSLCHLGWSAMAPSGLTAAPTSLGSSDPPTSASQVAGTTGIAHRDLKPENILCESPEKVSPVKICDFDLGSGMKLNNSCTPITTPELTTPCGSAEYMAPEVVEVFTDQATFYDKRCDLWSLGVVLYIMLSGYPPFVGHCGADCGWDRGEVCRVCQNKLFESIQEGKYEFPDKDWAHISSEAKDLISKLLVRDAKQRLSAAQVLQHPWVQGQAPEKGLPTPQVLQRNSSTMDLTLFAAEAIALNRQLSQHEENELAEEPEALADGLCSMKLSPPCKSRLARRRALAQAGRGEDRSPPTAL
UniProt Q16288, whole entry, looked up: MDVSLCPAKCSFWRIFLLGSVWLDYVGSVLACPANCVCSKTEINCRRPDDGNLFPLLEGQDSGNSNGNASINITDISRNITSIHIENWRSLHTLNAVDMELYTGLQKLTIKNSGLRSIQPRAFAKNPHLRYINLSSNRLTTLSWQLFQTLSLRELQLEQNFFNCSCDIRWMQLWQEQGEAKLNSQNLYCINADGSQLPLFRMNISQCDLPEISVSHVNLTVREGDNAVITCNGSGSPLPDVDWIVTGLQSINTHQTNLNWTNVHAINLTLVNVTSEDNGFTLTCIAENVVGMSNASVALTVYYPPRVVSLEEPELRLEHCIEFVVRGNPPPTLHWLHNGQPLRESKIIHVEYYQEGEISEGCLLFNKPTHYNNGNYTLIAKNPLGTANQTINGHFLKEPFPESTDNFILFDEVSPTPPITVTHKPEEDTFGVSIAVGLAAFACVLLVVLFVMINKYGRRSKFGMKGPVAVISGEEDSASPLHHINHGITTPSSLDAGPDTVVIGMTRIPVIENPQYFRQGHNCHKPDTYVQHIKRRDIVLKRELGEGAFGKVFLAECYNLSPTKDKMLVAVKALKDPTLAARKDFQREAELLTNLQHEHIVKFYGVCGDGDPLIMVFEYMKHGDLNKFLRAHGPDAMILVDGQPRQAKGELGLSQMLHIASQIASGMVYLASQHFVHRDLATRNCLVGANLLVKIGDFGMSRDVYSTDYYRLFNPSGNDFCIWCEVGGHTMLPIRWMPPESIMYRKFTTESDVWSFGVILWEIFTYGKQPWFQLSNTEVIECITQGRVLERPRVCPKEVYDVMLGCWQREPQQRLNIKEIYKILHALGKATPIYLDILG
UniProt Q15118, whole entry, looked up: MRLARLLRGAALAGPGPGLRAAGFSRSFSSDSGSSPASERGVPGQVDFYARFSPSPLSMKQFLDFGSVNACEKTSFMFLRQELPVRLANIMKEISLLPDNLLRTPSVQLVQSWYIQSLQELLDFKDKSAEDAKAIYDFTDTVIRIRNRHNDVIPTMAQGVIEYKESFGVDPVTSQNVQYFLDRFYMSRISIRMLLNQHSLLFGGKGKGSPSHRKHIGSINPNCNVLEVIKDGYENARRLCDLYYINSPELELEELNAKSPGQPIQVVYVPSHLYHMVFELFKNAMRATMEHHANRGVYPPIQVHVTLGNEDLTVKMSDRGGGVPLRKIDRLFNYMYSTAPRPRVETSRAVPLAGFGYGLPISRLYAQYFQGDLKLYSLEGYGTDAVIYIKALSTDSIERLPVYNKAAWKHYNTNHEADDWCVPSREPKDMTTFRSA
UniProt Q9UBF8: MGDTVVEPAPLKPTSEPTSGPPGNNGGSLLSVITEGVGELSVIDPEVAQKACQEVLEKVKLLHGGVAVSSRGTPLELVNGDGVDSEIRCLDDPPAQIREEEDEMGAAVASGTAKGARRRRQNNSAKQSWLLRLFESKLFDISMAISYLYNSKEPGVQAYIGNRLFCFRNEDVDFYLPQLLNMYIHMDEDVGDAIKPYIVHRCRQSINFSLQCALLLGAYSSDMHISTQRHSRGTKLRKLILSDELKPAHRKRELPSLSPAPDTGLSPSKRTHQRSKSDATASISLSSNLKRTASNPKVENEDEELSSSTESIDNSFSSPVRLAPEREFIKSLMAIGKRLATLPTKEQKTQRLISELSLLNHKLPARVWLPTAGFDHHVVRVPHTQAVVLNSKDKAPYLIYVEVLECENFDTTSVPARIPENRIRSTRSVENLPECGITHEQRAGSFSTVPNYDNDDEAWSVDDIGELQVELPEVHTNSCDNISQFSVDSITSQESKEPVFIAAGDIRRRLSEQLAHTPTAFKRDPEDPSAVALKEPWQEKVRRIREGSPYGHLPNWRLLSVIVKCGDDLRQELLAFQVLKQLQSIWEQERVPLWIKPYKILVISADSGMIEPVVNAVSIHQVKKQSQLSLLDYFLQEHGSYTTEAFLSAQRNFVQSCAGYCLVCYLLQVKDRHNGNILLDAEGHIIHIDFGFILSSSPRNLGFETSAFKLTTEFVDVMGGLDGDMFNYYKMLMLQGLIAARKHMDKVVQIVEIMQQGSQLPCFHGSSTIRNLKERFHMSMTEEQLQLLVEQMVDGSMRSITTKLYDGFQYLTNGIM
UniProt P53350, whole entry: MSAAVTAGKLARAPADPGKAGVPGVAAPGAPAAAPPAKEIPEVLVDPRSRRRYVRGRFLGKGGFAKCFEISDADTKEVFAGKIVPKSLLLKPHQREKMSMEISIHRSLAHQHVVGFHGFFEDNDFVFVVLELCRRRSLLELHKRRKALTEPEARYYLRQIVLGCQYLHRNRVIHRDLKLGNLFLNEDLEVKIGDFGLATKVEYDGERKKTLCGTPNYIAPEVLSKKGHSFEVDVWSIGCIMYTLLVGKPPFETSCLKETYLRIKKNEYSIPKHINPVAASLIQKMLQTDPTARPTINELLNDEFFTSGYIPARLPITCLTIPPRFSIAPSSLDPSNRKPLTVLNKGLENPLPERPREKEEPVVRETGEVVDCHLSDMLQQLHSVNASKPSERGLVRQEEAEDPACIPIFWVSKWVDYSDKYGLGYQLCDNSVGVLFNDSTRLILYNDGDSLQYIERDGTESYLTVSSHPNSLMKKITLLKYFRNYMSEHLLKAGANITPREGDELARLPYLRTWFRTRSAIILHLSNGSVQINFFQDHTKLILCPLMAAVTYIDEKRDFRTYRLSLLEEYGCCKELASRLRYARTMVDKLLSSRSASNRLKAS
UniProt Q13131: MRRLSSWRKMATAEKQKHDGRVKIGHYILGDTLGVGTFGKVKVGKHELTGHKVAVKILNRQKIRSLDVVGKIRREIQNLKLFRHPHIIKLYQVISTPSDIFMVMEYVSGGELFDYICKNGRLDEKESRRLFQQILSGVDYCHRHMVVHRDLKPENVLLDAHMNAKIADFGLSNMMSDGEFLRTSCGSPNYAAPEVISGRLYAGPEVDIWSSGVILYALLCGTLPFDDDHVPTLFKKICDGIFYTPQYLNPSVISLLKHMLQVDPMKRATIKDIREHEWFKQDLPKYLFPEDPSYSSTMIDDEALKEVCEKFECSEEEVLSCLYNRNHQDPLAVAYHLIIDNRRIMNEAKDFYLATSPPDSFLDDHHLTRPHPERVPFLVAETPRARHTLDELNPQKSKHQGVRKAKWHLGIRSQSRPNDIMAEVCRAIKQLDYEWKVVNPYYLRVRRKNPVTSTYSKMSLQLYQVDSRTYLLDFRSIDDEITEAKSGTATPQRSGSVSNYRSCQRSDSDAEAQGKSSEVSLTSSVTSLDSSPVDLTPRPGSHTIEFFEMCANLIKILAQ

Assays:
Test in all cases: number of time points (of 5) at which kinase-Nluc abundance scored as decreased, DMSO-normalised (count); higher = more persistent destabilization
Conditions in all cases: K562; 2-18 h
[1] = target: LMTK2 (UniProt Q8IWU2)
[2] = target: LYN (UniProt P07948)
[3] = target: MAP2K1 (UniProt Q02750)
[4] = target: MAP2K2 (UniProt P36507)
[5] = target: MAP4K2 (UniProt Q12851)
[6] = target: MAPK1 (UniProt P28482)
[7] = target: MAPK4 (UniProt P31152)
[8] = target: MAPKAPK2 (UniProt P49137)
[9] = target: MKNK1 (UniProt Q9BUB5)
[10] = target: NTRK2 (UniProt Q16620)
[11] = target: NTRK3 (UniProt Q16288)
[12] = target: PAK4 (UniProt O96013)
[13] = target: PBK (UniProt Q96KB5)
[14] = target: PDGFRB (UniProt P09619)
[15] = target: PDK1 (UniProt Q15118)
[16] = target: PDPK1 (UniProt O15530)
[17] = target: PIK4CA (UniProt P42356)
[18] = target: PIK4CB (UniProt Q9UBF8)
[19] = target: PLK1 (UniProt P53350)
[20] = target: PRKAA1 (UniProt Q13131)

SMILES | number of time points [1] | number of time points [2] | number of time points [3] | number of time points [4] | number of time points [5] | number of time points [6] | number of time points [7] | number of time points [8] | number of time points [9] | number of time points [10] | number of time points [11] | number of time points [12] | number of time points [13] | number of time points [14] | number of time points [15] | number of time points [16] | number of time points [17] | number of time points [18] | number of time points [19] | number of time points [20]
O=C(O)c1cccc(CN2C(=O)/C(=C(\c3ccccc3)c3ccc(Cl)cc3)c3ccccc32)c1 (2.5 µM) | 0 | 0 | 0 | 0 | 0 | 0 | 0 | 0 | 0 | 0 | 0 | 0 | 0 | 0 | 0 | 0 | 0 | 0 | 0 | 0
C=CC(=O)Nc1cccc(CNc2nc(Nc3ccc(N4CCN(C)CC4)cc3OC)ncc2Cl)c1 (10 µM) | 0 | 0 | 0 | 0 | 0 | 0 | 0 | 0 | 0 | 0 | 0 | 0 | 0 | 0 | 0 | 0 | 0 | 0 | 0 | 0
C[C@@H]1COCCN1c1nc(-c2cnc(N)cc2C(F)F)nc(N2[C@H](C)COC[C@@H]2C)n1 (2.5 µM) | 0 | 0 | 0 | 0 | 0 | 0 | 0 | 0 | 0 | 1 | 3 | 0 | 0 | 0 | 0 | 2 | 1 | 0 | 0 | 0
N#Cc1ccnc(Nc2cc(C3CCN(C4COC4)CC3)cc(N3CCC(F)(F)C3)n2)c1 (2.5 µM) | 0 | 0 | 0 | 0 | 0 | 0 | 0 | 0 | 0 | 0 | 0 | 0 | 0 | 0 | 0 | 0 | 0 | 0 | 0 | 0
CNC(=O)c1ccccc1Oc1nc(Nc2cc(OC)c(OC)c(OC)c2)ncc1Br (2.5 µM) | 0 | 0 | 0 | 0 | 0 | 0 | 0 | 0 | 0 | 0 | 0 | 0 | 0 | 0 | 0 | 0 | 0 | 0 | 0 | 0
COc1ccc2cc(-c3nc(-c4ccc([S+](C)[O-])cc4)[nH]c3-c3ccncc3)ccc2c1 (stereo not given) [Tie2 kinase inhibitor 1] (2.5 µM) | 0 | 0 | 0 | 0 | 0 | 0 | 0 | 0 | 0 | 0 | 0 | 0 | 0 | 0 | 0 | 0 | 0 | 0 | 0 | 0
COc1cc(/C=C/C(=O)N2CCC=CC2=O)cc(OC)c1OC [Piperlongumine] (2.5 µM) | 4 | 0 | 0 | 0 | 0 | 0 | 1 | 0 | 1 | 0 | 0 | 0 | 0 | 0 | 0 | 0 | 0 | 5 | 0 | 0
Cc1cccc2c3c(ccc12)C(=O)C1=C(OCC1C)C3=O (stereo not given) [Dihydroisotanshinone I] (2.5 µM) | 0 | 0 | 0 | 0 | 0 | 0 | 0 | 0 | 0 | 0 | 0 | 0 | 0 | 0 | 0 | 0 | 0 | 0 | 0 | 0
COc1ccc(N=Nc2c(N)n[nH]c2N)cc1 (10 µM) | 0 | 0 | 0 | 0 | 0 | 0 | 0 | 0 | 0 | 0 | 0 | 0 | 0 | 0 | 0 | 0 | 0 | 0 | 0 | 0
Cc1nn(C)c2c1C(c1ccc(C(F)(F)F)cc1)C(C#N)=C(N)O2 (stereo not given) (10 µM) | 0 | 0 | 0 | 0 | 0 | 0 | 0 | 0 | 0 | 0 | 0 | 0 | 0 | 0 | 0 | 0 | 0 | 0 | 0 | 0
NC(=S)n1[nH]c(-c2ccc([N+](=O)[O-])cc2)c(N=Nc2cccc(Cl)c2)c1=O (2.5 µM) | 0 | 0 | 0 | 0 | 0 | 0 | 0 | 0 | 0 | 0 | 0 | 0 | 0 | 0 | 0 | 0 | 0 | 0 | 0 | 0
O=[N+]([O-])c1ccc(Nc2nc(N3CCOCC3)nc(N3CCOCC3)n2)cc1 (10 µM) | 0 | 0 | 0 | 0 | 0 | 0 | 0 | 0 | 0 | 0 | 0 | 0 | 0 | 0 | 0 | 0 | 0 | 0 | 0 | 0

As entered above.
Value of `N#Cc1ccnc(Nc2cc(C3CCN(C4COC4)CC3)cc(N3CCC(F)(F)C3)n2)c1` (2.5 µM) under number of time points [15]: 0
Value of `NC(=S)n1[nH]c(-c2ccc([N+](=O)[O-])cc2)c(N=Nc2cccc(Cl)c2)c1=O` (2.5 µM) under number of time points [3]: 0
